In PMC9523997:
No constants are given. Whether binding was seen depends on the method and setting. For some of these results: In cells and extracts the contact can be indirect. Some binding calls cover weakened binding; strength is not graded here.

Amino acid sequences for entries named in this document (tags omitted).
UniProt A8JR92: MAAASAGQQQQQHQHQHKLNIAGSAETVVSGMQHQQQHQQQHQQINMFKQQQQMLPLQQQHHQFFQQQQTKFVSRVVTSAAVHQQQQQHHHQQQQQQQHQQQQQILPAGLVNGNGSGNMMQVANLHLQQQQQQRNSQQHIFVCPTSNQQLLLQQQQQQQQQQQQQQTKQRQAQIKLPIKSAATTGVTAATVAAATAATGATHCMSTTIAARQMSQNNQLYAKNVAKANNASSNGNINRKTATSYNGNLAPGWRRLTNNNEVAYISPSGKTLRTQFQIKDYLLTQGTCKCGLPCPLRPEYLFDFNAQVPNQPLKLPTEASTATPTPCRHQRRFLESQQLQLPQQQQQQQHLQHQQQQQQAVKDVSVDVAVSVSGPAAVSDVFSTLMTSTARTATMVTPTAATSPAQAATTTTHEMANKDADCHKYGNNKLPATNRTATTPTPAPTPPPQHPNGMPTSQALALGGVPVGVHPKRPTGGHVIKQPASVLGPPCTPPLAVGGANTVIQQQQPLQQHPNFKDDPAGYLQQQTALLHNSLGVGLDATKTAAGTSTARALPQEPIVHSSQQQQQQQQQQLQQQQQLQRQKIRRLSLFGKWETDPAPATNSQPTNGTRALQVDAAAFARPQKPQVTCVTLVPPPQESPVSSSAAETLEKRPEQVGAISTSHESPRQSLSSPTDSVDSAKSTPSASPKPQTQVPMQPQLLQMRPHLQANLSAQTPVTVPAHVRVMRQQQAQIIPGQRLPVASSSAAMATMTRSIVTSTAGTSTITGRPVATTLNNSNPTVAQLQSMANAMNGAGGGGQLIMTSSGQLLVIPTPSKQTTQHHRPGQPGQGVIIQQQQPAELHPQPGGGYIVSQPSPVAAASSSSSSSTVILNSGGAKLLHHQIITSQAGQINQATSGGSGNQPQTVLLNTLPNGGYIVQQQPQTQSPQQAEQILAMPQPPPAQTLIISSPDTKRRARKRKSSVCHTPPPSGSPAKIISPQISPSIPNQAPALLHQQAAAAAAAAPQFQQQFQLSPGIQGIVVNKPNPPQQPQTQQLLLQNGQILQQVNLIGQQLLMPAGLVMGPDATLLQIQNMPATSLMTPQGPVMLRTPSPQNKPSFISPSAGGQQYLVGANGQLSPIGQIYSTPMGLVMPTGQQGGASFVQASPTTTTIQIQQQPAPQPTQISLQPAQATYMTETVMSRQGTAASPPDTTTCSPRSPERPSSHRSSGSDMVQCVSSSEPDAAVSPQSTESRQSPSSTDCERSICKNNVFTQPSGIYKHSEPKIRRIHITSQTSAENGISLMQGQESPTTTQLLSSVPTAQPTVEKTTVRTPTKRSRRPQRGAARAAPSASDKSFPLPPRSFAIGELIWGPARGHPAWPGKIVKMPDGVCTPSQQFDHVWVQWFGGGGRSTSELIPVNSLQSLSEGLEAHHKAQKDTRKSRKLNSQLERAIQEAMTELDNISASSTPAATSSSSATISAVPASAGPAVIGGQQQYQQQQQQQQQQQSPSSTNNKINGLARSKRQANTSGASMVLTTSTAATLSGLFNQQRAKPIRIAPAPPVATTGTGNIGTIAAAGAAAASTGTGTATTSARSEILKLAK
UniProt Q8IXJ9: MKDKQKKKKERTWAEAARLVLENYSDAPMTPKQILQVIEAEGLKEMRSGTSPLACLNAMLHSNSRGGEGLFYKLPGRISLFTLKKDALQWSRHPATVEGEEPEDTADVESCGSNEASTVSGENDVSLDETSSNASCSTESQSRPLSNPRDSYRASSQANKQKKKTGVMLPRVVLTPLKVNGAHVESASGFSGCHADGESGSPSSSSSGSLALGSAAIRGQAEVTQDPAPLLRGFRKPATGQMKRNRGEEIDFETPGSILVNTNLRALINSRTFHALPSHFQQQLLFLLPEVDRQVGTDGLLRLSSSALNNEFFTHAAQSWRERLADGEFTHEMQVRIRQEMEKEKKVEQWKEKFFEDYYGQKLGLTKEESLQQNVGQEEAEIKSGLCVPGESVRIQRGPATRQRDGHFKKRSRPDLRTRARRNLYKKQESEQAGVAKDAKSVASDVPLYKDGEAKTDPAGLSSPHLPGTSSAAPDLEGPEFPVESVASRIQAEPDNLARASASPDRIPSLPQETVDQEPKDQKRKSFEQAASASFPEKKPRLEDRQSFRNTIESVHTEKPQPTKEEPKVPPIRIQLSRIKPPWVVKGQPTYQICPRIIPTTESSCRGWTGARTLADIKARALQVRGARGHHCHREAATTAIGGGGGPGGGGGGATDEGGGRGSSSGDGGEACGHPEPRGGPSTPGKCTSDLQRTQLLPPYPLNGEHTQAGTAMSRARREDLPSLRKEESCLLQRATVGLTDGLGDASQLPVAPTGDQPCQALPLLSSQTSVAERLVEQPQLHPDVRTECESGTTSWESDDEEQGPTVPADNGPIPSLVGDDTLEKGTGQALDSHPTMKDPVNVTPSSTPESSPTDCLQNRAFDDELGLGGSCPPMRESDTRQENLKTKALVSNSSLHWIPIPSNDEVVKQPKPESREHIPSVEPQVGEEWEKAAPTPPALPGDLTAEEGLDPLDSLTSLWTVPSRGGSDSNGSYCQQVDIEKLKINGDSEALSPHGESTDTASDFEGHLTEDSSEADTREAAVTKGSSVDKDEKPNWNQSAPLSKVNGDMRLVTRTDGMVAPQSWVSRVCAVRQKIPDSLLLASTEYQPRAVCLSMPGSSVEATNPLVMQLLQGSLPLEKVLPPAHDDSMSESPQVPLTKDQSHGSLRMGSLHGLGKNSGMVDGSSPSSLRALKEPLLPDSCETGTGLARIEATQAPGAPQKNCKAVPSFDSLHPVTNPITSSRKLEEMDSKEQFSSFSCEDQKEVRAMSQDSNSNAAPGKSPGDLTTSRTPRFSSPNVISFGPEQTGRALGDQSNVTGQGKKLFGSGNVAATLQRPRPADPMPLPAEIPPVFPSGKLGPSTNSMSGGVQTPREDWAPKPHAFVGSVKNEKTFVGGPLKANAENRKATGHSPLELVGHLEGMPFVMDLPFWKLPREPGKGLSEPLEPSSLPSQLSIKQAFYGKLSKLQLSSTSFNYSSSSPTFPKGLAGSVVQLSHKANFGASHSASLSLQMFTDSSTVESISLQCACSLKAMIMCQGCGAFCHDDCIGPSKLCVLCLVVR
UniProt Q76L83: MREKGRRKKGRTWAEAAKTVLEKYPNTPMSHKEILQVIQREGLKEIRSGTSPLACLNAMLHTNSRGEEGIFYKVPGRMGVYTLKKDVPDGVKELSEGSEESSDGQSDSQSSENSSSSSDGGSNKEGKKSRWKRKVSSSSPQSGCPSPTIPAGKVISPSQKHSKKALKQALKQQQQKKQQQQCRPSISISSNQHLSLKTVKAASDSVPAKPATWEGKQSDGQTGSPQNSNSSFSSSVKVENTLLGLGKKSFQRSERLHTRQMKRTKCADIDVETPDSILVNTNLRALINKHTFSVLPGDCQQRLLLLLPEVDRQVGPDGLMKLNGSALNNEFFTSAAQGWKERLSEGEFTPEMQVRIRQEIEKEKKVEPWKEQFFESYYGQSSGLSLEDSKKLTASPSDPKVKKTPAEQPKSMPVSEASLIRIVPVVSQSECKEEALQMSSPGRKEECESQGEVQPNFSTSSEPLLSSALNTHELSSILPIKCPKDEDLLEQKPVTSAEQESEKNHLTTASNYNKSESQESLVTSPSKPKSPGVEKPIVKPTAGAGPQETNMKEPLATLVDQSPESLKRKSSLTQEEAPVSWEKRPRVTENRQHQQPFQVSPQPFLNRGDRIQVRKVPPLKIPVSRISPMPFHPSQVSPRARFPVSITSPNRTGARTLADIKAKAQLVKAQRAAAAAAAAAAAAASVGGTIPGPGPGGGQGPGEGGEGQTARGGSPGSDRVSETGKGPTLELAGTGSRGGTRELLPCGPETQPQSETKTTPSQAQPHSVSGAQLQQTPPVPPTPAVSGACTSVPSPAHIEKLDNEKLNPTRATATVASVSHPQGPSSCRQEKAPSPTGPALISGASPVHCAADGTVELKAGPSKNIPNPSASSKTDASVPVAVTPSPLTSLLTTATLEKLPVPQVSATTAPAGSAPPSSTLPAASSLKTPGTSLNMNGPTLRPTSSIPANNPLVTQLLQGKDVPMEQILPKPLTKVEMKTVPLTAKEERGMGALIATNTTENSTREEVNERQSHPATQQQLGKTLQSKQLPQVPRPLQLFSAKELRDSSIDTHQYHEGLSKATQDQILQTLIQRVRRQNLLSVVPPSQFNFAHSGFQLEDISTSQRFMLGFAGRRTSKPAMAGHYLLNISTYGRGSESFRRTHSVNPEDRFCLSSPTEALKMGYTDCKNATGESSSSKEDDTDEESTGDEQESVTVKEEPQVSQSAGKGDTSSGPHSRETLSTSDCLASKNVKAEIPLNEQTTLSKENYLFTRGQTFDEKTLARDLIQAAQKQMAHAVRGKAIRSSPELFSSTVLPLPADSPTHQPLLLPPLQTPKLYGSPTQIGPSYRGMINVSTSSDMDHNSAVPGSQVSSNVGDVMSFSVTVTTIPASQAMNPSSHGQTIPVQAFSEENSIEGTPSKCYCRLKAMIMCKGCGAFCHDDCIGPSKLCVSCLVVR
UniProt Q9V727: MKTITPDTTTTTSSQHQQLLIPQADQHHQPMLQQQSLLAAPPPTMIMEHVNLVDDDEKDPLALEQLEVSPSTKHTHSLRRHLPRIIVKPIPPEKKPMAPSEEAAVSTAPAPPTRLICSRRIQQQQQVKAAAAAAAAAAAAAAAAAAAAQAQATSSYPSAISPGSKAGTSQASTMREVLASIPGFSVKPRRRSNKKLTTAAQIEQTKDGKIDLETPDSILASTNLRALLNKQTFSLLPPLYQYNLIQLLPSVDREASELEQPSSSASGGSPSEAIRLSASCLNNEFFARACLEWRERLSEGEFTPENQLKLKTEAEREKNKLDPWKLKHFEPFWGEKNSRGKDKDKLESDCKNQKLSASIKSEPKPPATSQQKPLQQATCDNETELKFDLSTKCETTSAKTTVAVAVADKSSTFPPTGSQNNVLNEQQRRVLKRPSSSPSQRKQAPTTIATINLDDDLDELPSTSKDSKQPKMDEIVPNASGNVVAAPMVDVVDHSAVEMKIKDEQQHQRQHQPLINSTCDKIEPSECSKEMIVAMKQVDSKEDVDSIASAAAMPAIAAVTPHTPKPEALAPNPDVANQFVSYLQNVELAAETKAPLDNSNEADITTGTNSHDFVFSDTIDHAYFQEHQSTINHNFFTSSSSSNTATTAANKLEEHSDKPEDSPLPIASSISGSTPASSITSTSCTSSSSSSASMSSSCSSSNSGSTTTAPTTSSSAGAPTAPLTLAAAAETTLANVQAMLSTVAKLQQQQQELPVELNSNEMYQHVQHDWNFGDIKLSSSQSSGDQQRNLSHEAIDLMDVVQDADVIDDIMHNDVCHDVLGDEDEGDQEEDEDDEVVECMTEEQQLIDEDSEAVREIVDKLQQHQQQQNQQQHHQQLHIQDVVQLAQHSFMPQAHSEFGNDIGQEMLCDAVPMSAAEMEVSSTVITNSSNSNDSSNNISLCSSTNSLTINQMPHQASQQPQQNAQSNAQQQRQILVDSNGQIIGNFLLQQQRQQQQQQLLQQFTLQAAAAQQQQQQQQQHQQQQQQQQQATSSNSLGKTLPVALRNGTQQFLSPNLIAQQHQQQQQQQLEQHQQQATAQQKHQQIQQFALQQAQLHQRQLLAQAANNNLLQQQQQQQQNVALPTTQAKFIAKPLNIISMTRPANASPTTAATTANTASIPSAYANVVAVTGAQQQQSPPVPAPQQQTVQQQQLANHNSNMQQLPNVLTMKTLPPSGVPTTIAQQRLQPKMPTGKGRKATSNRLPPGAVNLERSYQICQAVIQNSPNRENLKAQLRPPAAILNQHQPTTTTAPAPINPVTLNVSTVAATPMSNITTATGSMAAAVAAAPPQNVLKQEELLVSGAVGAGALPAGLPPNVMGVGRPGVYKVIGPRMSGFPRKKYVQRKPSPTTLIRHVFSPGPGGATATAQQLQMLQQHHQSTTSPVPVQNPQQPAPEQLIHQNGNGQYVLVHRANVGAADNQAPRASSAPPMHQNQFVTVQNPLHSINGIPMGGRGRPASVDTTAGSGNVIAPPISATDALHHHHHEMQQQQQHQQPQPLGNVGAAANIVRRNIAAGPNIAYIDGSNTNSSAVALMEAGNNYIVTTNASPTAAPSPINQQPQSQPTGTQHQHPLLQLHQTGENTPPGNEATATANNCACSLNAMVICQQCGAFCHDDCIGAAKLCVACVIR

What was measured:
[1] = target: T1, Calypso, endogenous in Drosophila S2 cells (Drosophila (endogenous in S2)) (UniProt Q7K5N4); test: SEC; size exclusion experiment with Drosophila cells (Fig. S3L, legend not shown), western blot
T1 sequence: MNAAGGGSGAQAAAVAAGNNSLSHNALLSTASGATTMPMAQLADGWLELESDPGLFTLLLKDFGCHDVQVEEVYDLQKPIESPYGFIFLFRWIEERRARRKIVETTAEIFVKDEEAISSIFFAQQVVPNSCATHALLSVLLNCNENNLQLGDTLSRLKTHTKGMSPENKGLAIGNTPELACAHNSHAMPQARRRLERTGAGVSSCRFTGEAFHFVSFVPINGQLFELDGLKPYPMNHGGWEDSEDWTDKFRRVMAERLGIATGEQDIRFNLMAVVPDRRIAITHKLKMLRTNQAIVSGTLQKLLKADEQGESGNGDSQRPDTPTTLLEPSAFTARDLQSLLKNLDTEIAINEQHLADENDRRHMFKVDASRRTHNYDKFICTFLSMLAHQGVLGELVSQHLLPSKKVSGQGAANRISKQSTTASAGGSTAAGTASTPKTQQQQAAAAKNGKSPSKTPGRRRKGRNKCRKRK

[2] = target: T1, Calypso, endogenous in Drosophila S2 cells (Drosophila (endogenous in S2)); test: co-IP; Drosophila S2 cells; IP with antibodies against Calypso, SBA or ASX, immunoblot for ASX and SBA
[3] = target: T2, methyl-CpG-binding domain protein 5 (MBD5), endogenous (human (endogenous in HEK293T)) (UniProt Q9P267); test: co-IP; endogenous proteins precipitated with antibody and Protein A/G at 4°C overnight from lysates (50 mM Tris pH 8.0, 150 mM NaCl, 0.5% Triton X100, 10% glycerol, benzonase), immunoblot; HEK293T wild type and BAP1 knockout; cells with the PHD finger of ASXL1 or ASXL2 deleted
T2 sequence: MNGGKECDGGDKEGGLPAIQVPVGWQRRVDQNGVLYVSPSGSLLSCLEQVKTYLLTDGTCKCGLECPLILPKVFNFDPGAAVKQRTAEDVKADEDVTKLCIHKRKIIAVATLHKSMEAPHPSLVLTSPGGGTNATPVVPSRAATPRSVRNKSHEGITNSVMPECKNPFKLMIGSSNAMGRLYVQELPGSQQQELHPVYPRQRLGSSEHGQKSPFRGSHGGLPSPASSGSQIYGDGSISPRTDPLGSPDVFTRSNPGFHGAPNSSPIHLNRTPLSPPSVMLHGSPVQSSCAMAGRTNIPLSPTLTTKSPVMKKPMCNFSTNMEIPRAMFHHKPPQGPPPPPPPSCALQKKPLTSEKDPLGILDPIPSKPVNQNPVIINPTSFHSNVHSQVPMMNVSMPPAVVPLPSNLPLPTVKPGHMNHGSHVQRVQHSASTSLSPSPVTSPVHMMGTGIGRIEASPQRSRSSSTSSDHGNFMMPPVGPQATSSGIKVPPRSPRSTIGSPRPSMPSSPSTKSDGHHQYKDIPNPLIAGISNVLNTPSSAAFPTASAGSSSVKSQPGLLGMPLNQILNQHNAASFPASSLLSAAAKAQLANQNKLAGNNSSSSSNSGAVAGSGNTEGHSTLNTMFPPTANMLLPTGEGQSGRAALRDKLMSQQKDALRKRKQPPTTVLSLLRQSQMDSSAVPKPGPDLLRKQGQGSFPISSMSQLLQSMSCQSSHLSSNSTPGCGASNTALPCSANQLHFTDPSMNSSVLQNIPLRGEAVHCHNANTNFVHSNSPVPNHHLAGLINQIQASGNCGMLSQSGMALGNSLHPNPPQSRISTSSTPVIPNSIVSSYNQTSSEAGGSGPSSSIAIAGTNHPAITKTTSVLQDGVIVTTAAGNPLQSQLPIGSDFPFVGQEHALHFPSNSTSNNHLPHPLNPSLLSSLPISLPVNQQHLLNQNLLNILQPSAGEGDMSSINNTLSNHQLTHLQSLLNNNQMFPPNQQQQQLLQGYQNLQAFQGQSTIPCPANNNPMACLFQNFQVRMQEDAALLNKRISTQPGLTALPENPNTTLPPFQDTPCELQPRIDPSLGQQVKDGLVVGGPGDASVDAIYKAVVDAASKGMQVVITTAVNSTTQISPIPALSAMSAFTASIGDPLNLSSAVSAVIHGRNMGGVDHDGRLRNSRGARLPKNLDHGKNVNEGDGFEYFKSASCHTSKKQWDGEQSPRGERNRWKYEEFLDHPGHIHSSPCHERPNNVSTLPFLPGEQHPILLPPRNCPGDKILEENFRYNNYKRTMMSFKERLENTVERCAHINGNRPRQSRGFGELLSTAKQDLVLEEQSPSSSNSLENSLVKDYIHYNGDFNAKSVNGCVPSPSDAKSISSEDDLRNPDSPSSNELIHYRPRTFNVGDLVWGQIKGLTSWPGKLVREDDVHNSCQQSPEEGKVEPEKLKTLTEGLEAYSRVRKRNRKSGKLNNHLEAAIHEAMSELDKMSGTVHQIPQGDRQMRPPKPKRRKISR

[4] = target: T3, methyl-CpG-binding domain protein 6 (MBD6), endogenous (human (endogenous in HEK293T and SCLC cell lines)) (UniProt Q96DN6); test: as above
T3 sequence: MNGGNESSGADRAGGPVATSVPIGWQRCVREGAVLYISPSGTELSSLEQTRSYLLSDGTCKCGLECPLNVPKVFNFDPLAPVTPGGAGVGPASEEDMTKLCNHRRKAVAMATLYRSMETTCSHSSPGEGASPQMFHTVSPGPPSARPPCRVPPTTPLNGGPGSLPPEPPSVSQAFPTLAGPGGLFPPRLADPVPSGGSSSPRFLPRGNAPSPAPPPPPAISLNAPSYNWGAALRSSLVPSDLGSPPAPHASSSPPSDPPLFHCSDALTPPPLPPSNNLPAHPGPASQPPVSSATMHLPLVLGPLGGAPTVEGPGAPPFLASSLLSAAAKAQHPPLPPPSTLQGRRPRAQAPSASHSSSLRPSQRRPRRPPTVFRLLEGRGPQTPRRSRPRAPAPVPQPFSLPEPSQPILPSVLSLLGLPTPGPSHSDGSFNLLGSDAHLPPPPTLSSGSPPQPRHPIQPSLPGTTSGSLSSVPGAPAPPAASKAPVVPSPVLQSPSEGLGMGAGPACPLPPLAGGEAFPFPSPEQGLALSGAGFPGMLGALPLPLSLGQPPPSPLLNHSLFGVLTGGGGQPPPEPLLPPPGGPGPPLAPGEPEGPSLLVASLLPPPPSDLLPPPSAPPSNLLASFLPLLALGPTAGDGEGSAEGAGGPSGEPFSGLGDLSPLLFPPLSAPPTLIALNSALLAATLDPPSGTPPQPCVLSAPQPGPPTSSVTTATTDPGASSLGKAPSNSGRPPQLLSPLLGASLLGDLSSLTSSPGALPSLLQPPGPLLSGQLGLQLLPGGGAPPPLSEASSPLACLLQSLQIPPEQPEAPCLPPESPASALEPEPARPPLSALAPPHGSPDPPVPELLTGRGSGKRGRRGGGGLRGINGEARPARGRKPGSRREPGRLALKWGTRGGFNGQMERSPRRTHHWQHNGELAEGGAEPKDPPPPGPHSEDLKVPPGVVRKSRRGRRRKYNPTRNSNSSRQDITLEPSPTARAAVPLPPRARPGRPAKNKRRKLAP

[5] = target: Six-banded (SBA), endogenous in Drosophila S2 cells (Drosophila (endogenous in S2)) (UniProt A8JR92); test: SEC; size exclusion experiment with Drosophila cells (Fig. S3L, legend not shown), western blot
[6] = target: Six-banded (SBA), endogenous in Drosophila S2 cells (Drosophila (endogenous in S2)) (UniProt A8JR92); test: co-IP; Drosophila S2 cells; IP with antibodies against Calypso, SBA or ASX, immunoblot for ASX and SBA

Six-banded (SBA), endogenous in Drosophila S2 cells (from UniProt A8JR92 1-1583)
binding [1]: binds
binding [2]: binds

additional sex comb-like protein 1 (ASXL1), endogenous (from UniProt Q8IXJ9 1-1541)
binding [3]: binds

additional sex comb-like protein 2 (ASXL2), endogenous (from UniProt Q76L83 1-1435)
binding [3]: binds
binding [4]: binds

additional sex combs (ASX), endogenous in Drosophila S2 cells (from UniProt Q9V727 1-1669)
binding [5]: binds
binding [6]: binds
